Values of other authors, collected in patent US10098909B2 (UNIVERSITY OF SOUTH FLORIDA, priority 2016, dated 2018).
For at least one compound, name, drawing or mass did not settle the structure.

What was measured:
[1] = tested on: Fmr1 KO mice; conditions: dfmr1 mutant Drosophila and Fmr1 KO mice; cited from earlier work
[2] = tested on: FXS patients; conditions: oral, 2 months; cited from earlier work
[3] = tested on: cortical neurons; conditions: cited from earlier work

For `[Li]` [lithium], the “FXS behavioral phenotypes (hyperactivity, social and cognitive impairment)” value [1] is given as “reversed”, the “clinical behaviour (aggression, anxiety, mood swings, tantrums, abnormal outbursts)” value [2] is given as “showed improvements” and the BDNF levels [3] is given as “increase BDNF levels”.
